From patent US12233066B2, “Combinations of inhibitors of influenza virus replication” (COCRYSTAL PHARMA, INC., priority 2018, dated 2025)
For at least one compound, name, drawing or mass did not settle the structure.

Tests used:
[1] = system: influenza B; experiment: Antiviral activity of the combinations against influenza B; type: cell-based; conditions: combination with Compound 1
[2] = system: influenza A/H1N1 virus; conditions: combinations of baloxavir with neuraminidase inhibitors; NOCK cells; cited from earlier work

O=C1c2c(O)c(=O)ccn2N([C@@H]2c3ccccc3SCc3c2ccc(F)c3F)[C@@H]2COCCN12 [Baloxavir, baloxavir]
Antiviral activity against influenza B [1]: exhibit antiviral activity | Inhibition of replication of influenza A/H1N1 virus [2]: synergistically inhibited
